Results deposited as PubChem BioAssay AID686937 (Drosophila RNAi Screening Center, 2013).
The deposit covers about 23,000 reagents; this is an unselected part of those that have a named target and a result. 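Reduced-secretion tags in replicate 1 do not always agree with the z-scores; no criterion for assigning the tags was given.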 A plus sign joins genes that one reagent is predicted to hit. Further read-outs or replicates are left out here. No sequences are given here. The record does not give: the amount of reagent.

Aim: 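Genes in the fly needed for secretion of protein constitutively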 (primary screen)
Cells: Drosophila S2 cells expressing secreted horseradish peroxidase
Reagent: long dsRNA against Drosophila genes
Duration: about 5.5 days (5 days dsRNA, then 12 h reporter induction)
Challenge: reporter expression induced after 5 days of dsRNA, read 12 h later; inducer not stated
Measurement: 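Chemiluminescent measurement of peroxidase in the medium 12 h after reporter induction, following 5 days of dsRNA, given as a z-score per plate; higher means more secretion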
Scale: z-score: higher = more reporter secreted into medium

Gene | DRSC id | z-score, replicate 1 | z-score, replicate 2 | z-score, replicate 3
twit (target of wit) | DRSC03210 | 0.36 | 0.13 | –
CG7785 | DRSC16311 | 0.42 | 0.47 | –
Atg17 (Autophagy-related 17) | DRSC12221 | 0.21 | 0.61 | –
CG4835 | DRSC10452 | -4.46 | -4.15 | –
CG16790 | DRSC15156 | 0.21 | 0.38 | –
CG17721 | DRSC15253 | 0.33 | -0.24 | –
CG15127 | DRSC05802 | 0.03 | 0.01 | –
CG15127 | DRSC06549 | 0.18 | 0.34 | –
CG43897 | DRSC10173 | 0.01 | 0.19 | –
CG43897 | DRSC10965 | -1.51 | -1.66 | –
CG43897 | DRSC10967 | 0.4 | 0.25 | –
CG43897 | DRSC21583 | 1.52 | 0.84 | –
CG2217 + CG42740 | DRSC14141 | 0.28 | 0.4 | –
CG13280 | DRSC02253 | 0.26 | 0.18 | –
Mal-A4 (Maltase A4) | DRSC07236 | 0.32 | 0.07 | –
jet (jetlag) | DRSC03116 | 0.26 | 0.05 | –
CG14191 | DRSC19546 | 0.33 | 0.23 | –
CG18853 | DRSC06795 | 0.22 | 0.4 | –
CG13627 | DRSC14629 | 0.54 | 0.41 | –
Slip1 (SLo interacting protein 1) | DRSC17146 | 0.44 | 0.1 | –
CG13306 | DRSC09976 | 0.17 | 0.08 | –
Rrp6 | DRSC16223 | -3.5 | -3.93 | –
Dro (Drosocin) | DRSC07406 | 0.47 | 0.43 | –
CG17196 | DRSC15189 | 0.36 | 0.48 | –
Las (Lipoic acid synthase) | DRSC11772 | 0.41 | -0.17 | –
CG31867 | DRSC03338 | -0.04 | -0.06 | –
CG18536 | DRSC06763 | 0.5 | 0.02 | –
ppk12 (pickpocket 12) | DRSC04086 | 0.32 | 0.25 | –
Invadolysin | DRSC15527 | 0.56 | 0.28 | –
ball (ballchen) | DRSC14145 | 0.29 | -0.64 | –
CG4988 | DRSC02800 | 0.27 | 0.06 | –
Pgls (6-phosphogluconolactonase) | DRSC19769 | 0.36 | 0.61 | –
ABCB7 (ATP binding cassette subfamily B member 7) | DRSC08603 | 0.31 | 0.31 | –
CG15043 | DRSC19619 | -0.05 | -0.5 | –
Glys (Glycogen synthase) | DRSC16130 | 0.53 | 0.64 | –
CG4133 | DRSC00639 | -0.38 | -0.1 | –
CG8441 | DRSC07180 | 0.17 | 0.5 | –
CG18586 | DRSC10325 | 0.33 | 0.21 | –
CG11816 | DRSC19428 | -0.13 | 0.78 | –
msps (mini spindles) | DRSC17004 | 0.36 | 0.37 | –
mex1 (midgut expression 1) | DRSC11368 | 0.61 | 0.36 | –
CG11414 | DRSC04110 | 0.24 | 0.3 | –
PH4alphaNE3 (prolyl-4-hydroxylase-alpha NE3) | DRSC16541 | 0.43 | 0.54 | –
dbe (dribble) | DRSC00811 | 0.37 | 0.52 | –
CG32576 | DRSC19136 | -1.92 | -1.16 | –
RpL19 (Ribosomal protein L19) | DRSC04649 | -4.75 | -6.44 | –
Hr3 (Hormone receptor 3) | DRSC06118 | -0.2 | -0.1 | –
Hr3 (Hormone receptor 3) | DRSC07441 | 0.35 | 0.41 | –
CG42254 (retired record) | DRSC06194 | 0.08 | 0.18 | –
CHKov2 (CHK domain ov2) | DRSC14262 | 0.26 | 0.62 | –
baf (barrier to autointegration factor) | DRSC03051 | 0.28 | -0.13 | –
Chi (Chip) | DRSC04602 | 0.27 | 0.19 | –
CG1146 | DRSC08189 | 0.12 | 0.32 | –
cnk (connector enhancer of ksr) | DRSC07595 | 0.07 | 0.15 | –
slv (saliva) | DRSC07685 | 0.16 | 0.22 | –
CG13332 | DRSC06367 | -0.37 | 0.17 | –
CG14125 | DRSC10129 | 0.29 | 0.33 | –
CG6462 | DRSC10641 | 0.32 | 0.35 | –
N (Notch) | DRSC18685 | 0.17 | 0.23 | –
CG4991 | DRSC19928 | 0.37 | 0.35 | –
CG31798 | DRSC01702 | 0.39 | 0.22 | –
Ulp1 | DRSC19339 | 0.06 | 0.09 | –

Entries listed so far whose gene name begins with H or h (2):
Gene | DRSC id | z-score, replicate 1 | z-score, replicate 2 | z-score, replicate 3
Hr3 (Hormone receptor 3) | DRSC06118 | -0.2 | -0.1 | –
Hr3 (Hormone receptor 3) | DRSC07441 | 0.35 | 0.41 | –

The list goes on:
Gene | DRSC id | z-score, replicate 1 | z-score, replicate 2 | z-score, replicate 3
Rpt2 (Regulatory particle triple-A ATPase 2) | DRSC16799 | -5.21 | -4.39 | –
Idh3b (Isocitrate dehydrogenase 3b) | DRSC16040 | 0.04 | 0.37 | –
maf-S | DRSC07348 | 0.39 | 0.32 | –
CG32202 | DRSC09989 | 0.48 | 0.36 | –
app (approximated) | DRSC09159 | 0.38 | 0.42 | –
app (approximated) | DRSC10246 | 0.28 | 0.26 | –
app (approximated) | DRSC10526 | 0.46 | 0.33 | –
Sidpn (similar to Deadpan) | DRSC02056 | 0.23 | 0.25 | –
TwdlM (TweedleM) | DRSC15810 | 0.42 | 0.85 | –
CG15731 | DRSC19698 | 0.1 | 0.09 | –
CG15731 | DRSC21820 | 0.18 | 0.2 | –
CG31601 | DRSC03678 | 0.2 | 0.28 | –
CG32708 | DRSC18411 | -0.47 | 0.26 | –
CG3857 | DRSC18542 | 0.38 | 0.54 | –
RhoU | DRSC17635 | 0.46 | 0.16 | –
RhoU | DRSC17803 | -0.12 | -0.2 | –
RhoU | DRSC17804 | 0.4 | 0.3 | 0.43
RhoU | DRSC22159 | -0.64 | -0.23 | –
RhoU | DRSC22396 | -2.37 | -0.51 | –
Hsp27 (Heat shock protein 27) | DRSC11190 | 0.36 | 0.17 | –
Gad1 (Glutamic acid decarboxylase 1) | DRSC08661 | -0.2 | -0.01 | –
lncRNA:CR41443 (long non-coding RNA:CR41443) | DRSC07733 | 0.11 | 0.27 | –
pck (pickel) | DRSC18565 | 0.17 | 0.02 | –
CG18179 | DRSC10303 | 0.2 | 0.25 | –
Fis1 (Fission, mitochondrial 1) | DRSC07772 | 0.46 | 0.19 | –
CG13409 | DRSC14585 | 0.31 | 0.29 | –
Uba5 (Ubiquitin-like activating enzyme 5) | DRSC19775 | 0.35 | 0.41 | –
CG1387 | DRSC17904 | 0.41 | 0.53 | –
CG2924 | DRSC18525 | -0.23 | -0.1 | –
Dh44 (Diuretic hormone 44) | DRSC12747 | 0.41 | -0.6 | –
Dh44 (Diuretic hormone 44) | DRSC16409 | 0.35 | 0.74 | –
CG8736 | DRSC07255 | 0.15 | 0.31 | –
CG6310 | DRSC10619 | 0.29 | 0.19 | –
Teh1 (tipE homolog 1) | DRSC14544 | 0.26 | 0.64 | –
CG4598 | DRSC02763 | 0.24 | 0.1 | –
Apc2 (Adenomatous polyposis coli 2) | DRSC14115 | 0.61 | 0.53 | –
beta-Spec (beta Spectrin) | DRSC20311 | 0.26 | 0.47 | –
CG33098 | DRSC22903 | -0.14 | 0.19 | –
Vamp7 (Vesicle-associated membrane protein 7) | DRSC06599 | 0.01 | 0.33 | –
CG43155 | DRSC19642 | 0.38 | 0.03 | –
CG43155 | DRSC19777 | 0.04 | 0.26 | –
Golgin84 (Golgin-84) | DRSC15269 | 0.14 | 0.14 | –
